The text below walks through data of the supplement of paper PMC10032668.

By UniProt entry, the sequences of proteins in these tests, tags left out.
AIFM1, O95831, UniProt O95831, whole entry: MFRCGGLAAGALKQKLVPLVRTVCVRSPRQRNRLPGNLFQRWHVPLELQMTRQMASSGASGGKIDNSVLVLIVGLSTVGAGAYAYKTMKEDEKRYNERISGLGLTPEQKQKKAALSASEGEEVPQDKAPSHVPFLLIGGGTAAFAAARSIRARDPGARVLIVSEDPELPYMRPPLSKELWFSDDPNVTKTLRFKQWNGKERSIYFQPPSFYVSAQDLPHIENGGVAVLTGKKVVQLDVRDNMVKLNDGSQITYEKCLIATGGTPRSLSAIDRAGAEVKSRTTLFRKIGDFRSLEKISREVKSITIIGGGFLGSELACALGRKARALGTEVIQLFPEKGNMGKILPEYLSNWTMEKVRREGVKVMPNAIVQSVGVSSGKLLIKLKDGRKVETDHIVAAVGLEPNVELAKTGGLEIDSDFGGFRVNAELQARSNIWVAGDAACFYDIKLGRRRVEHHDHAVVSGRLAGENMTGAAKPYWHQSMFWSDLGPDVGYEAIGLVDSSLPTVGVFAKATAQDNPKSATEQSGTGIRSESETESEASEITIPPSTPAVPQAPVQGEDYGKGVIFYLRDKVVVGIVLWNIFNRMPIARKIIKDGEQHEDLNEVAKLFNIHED
CUL4A, Q13619, UniProt Q13619, whole entry: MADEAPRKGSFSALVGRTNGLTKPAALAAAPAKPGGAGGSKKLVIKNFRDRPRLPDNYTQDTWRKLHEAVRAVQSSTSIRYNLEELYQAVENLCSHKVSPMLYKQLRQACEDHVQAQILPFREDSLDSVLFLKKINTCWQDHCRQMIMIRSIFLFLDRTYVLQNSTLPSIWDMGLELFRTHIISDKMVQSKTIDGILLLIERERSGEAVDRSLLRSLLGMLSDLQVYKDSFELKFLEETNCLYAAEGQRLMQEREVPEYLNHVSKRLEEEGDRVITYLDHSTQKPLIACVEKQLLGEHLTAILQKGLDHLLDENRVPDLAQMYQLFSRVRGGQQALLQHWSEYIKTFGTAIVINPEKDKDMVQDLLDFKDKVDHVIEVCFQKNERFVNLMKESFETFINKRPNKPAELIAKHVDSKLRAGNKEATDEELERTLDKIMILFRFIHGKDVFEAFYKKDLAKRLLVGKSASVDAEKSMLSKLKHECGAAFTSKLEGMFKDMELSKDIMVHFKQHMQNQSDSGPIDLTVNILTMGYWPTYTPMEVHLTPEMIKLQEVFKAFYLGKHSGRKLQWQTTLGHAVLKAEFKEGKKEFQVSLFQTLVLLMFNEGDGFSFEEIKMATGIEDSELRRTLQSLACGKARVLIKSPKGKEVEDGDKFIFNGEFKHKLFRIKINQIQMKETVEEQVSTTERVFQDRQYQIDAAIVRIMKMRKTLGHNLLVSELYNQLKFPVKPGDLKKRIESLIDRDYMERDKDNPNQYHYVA
AHSA1, O95433, UniProt O95433, whole entry: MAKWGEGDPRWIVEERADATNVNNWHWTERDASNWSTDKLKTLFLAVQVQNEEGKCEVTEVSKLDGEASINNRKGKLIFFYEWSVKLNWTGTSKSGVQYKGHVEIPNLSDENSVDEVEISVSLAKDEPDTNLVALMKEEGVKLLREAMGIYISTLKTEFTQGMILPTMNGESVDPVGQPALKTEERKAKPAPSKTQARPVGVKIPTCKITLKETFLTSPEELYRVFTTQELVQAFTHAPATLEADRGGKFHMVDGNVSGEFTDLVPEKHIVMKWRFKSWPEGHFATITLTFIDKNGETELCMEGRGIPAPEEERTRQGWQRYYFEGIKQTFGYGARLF
EP300, Q09472, UniProt Q09472, whole entry: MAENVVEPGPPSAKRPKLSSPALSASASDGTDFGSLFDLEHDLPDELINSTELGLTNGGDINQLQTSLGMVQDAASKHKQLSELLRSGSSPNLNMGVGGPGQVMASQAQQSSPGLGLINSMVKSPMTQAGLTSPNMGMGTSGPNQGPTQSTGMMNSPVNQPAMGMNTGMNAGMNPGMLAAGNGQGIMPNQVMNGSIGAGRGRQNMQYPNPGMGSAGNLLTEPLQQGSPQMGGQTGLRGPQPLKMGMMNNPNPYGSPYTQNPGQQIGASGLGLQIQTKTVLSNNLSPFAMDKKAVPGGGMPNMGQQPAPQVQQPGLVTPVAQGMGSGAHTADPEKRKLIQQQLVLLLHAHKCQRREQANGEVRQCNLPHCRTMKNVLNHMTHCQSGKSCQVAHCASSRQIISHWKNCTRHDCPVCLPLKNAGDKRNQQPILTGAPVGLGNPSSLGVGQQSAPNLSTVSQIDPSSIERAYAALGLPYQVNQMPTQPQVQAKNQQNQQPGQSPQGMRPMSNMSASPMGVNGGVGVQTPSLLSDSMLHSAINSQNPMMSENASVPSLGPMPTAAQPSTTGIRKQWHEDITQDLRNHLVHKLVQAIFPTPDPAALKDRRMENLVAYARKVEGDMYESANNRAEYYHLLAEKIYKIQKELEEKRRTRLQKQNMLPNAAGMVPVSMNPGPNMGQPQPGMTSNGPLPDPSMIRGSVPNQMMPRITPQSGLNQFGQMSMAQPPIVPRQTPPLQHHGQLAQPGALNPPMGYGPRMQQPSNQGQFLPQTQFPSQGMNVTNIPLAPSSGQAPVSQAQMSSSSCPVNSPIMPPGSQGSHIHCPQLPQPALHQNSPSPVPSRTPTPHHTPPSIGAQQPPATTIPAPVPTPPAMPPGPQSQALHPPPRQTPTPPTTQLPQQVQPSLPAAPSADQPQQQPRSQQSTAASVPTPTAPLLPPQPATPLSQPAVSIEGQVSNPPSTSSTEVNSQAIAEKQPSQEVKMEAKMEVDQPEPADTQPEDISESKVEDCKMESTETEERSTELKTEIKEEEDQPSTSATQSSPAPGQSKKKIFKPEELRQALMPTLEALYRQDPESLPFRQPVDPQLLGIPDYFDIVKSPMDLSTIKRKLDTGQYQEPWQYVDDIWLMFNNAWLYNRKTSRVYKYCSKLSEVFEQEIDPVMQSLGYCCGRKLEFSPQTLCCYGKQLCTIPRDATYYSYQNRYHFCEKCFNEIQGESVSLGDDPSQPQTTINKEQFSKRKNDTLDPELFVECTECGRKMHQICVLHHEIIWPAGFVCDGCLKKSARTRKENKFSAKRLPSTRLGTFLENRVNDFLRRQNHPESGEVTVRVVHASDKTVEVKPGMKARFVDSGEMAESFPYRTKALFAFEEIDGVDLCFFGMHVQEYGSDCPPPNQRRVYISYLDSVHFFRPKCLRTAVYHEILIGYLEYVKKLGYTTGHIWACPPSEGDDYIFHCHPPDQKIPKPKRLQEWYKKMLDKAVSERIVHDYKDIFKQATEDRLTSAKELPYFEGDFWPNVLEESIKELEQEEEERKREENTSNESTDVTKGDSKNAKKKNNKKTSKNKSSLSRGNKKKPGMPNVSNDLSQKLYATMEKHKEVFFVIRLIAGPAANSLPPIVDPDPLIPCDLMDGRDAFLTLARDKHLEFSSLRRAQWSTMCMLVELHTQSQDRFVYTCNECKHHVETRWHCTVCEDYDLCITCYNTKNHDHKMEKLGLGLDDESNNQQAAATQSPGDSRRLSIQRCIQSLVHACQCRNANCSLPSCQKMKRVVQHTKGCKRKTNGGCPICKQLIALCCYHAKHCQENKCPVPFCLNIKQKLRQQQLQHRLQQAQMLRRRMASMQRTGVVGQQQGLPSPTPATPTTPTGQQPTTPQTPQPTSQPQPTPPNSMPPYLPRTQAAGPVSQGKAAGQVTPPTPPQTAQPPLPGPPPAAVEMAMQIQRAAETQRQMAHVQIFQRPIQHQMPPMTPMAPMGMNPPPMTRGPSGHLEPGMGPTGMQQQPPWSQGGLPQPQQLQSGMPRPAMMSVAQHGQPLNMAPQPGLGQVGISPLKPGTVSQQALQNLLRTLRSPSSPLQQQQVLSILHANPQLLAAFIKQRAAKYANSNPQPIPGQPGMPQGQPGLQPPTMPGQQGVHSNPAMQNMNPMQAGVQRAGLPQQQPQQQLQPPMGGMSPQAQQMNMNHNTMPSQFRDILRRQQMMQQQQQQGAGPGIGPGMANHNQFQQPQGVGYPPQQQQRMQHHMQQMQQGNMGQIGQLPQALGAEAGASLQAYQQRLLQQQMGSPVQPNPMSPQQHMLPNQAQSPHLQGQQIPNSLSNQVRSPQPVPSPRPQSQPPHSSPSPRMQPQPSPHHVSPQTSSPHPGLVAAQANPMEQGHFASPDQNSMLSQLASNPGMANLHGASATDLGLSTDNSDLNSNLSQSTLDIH
RANBP1, P43487, UniProt P43487, whole entry: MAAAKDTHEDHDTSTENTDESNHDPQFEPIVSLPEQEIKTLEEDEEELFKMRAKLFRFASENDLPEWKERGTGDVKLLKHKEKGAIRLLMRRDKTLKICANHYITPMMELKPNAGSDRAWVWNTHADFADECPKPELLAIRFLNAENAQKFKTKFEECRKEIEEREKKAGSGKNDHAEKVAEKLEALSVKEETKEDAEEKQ

Common to all, as to assay: PRISMA enrichment of interactor (LFQ) in peptide spot vs all other peptide spots (log2 fold change); higher = stronger / more specific binding of the interactor to the peptide
In one assay the target is AIFM1, O95831. The method, then: (§1)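 PRISMA: 15-aa overlapping tiles (offset 8 aa) of 60 microproteins, plus SOS1/GLUT1 control peptides, were spot-synthesized on cellulose membranes in triplicate. Membranes were incubated with benzonase-treated HEK293T lysate, and bound proteins were identified by LC-MS/MS with LFQ. Enrichment is the log2 fold change of each protein in one spot versus all other spots. Only interactors passing the significance cutoff are listed.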

The target of another assay is ANP32B, Q92688. The method, then:
as §1

The next assay deals with AP2M1, Q96CW1. The method, then:
as §1

For the next assay, the target named is ATP2B3, Q16720. The procedure:
as §1

For the next assay, the target named is COPS5, Q92905. The procedure:
as §1

The target of another assay is CUL4A, Q13619. The method, then: as §1
The target of the next assay is CWC22, Q9HCG8. The method, then: as §1
The target of the next assay is CWC25, Q9NXE8. The procedure: as §1
Another assay addresses DCTPP1, Q9H773. The procedure:
as §1

The next assay has as its target EIF1AD, Q8N9N8. The method, then:
as §1

A further assay concerns the target LONP1, P36776. The method, then: as §1
The target in a further assay is MRPL49, Q13405. The method, then:
as §1

A further assay has as its target MRPL50, Q8N5N7. The method, then:
as §1

In a further assay the target is POLR2E, P19388. The procedure:
as §1

The next assay has as its target ZBTB11, O95625. The procedure: as §1
Another assay has as its target AHSA1, O95433. The method, then:
as §1

A further assay concerns the target FANCD2, Q9BXW9. The method, then: as §1
Another assay addresses HAL, P42357. The procedure:
as §1

A further assay concerns the target PPIL1, Q9Y3C6. The method, then: as §1
In another assay the target is RCN2, Q14257. The procedure:
as §1

A further assay addresses AHSG, P02765. The method, then: as §1
The target of a further assay is CKAP2, Q8WWK9. The method, then: as §1
In another assay the target is CKAP5, Q14008. The method, then:
as §1

For another assay, the target named is CSNK1A1, P48729. The procedure:
as §1

A further assay addresses EP300, Q09472. The procedure:
as §1

A further assay has as its target HAT1, O14929. The procedure:
as §1

The target in another assay is NOP16, Q9Y3C1. The procedure:
as §1

A further assay deals with NQO2, P16083. The procedure:
as §1

The target of another assay is NSD2, O96028. The method, then:
as §1

A further assay deals with RANBP1, P43487. The method, then:
as §1

The target of another assay is SLAIN2, Q9P270. The method, then:
as §1

A further assay has as its target SLC25A24, Q6NUK1. The method, then:
as §1

The target in the next assay is TIMM44, O43615. The procedure: as §1

This is one part of the list. The list holds hits alone, and they repeat only in part.

B1: PRR34-AS1 (peptide)
chain: STCSLKIPSARHFSW
In the case of B1, the “PRISMA enrichment of interactor (log2)” value was 4.91 with AIFM1, O95831; 7.16 with ANP32B, Q92688; 4.91 in the assay with AP2M1, Q96CW1; 6.59 with ATP2B3, Q16720; 4.88 with COPS5, Q92905; 4.1 with CUL4A, Q13619. Further, the “PRISMA enrichment of interactor (log2)” value was 4.76 with CWC22, Q9HCG8; 3.96 with CWC25, Q9NXE8; 3.59 with DCTPP1, Q9H773; 4.95 in the assay with EIF1AD, Q8N9N8; 8.37 in the assay with LONP1, P36776; 4.15 in the assay with MRPL49, Q13405. Besides, the “PRISMA enrichment of interactor (log2)” value is 3.88 with MRPL50, Q8N5N7; 5.05 in the assay with POLR2E, P19388; 8.85 in the assay with ZBTB11, O95625.

B2: PEX2 (peptide)
chain: MRQGFHRRTWSKNSH
With B2, the “PRISMA enrichment of interactor (log2)” value with AHSA1, O95433 was found to be 4.78; with FANCD2, Q9BXW9, 4.51; with HAL, P42357, 4.48; with PPIL1, Q9Y3C6 it was 4.17; with RCN2, Q14257, 7.73.

B3: RP11-140K17.3_2 (peptide)
chain: VVPRQLNFCISSGSR
As for B3, the “PRISMA enrichment of interactor (log2)” value with AHSG, P02765 was found to be 3.68; in the assay with CKAP2, Q8WWK9 it was 5.2; with CKAP5, Q14008, 6.25; with CSNK1A1, P48729, 6.32; in the assay with EP300, Q09472, 4.02; with HAT1, O14929, 6.68. For the same molecule, the “PRISMA enrichment of interactor (log2)” value with NOP16, Q9Y3C1 was found to be 4.73; with NQO2, P16083, 4.47; in the assay with NSD2, O96028 it was 6.18; with RANBP1, P43487 it was 5.76; with SLAIN2, Q9P270, 5.85; with SLC25A24, Q6NUK1, 5.89. The “PRISMA enrichment of interactor (log2)” value with TIMM44, O43615 was 4.26.
